PubChem BioAssay AID1224830, NIAID, 2016

- Aim: 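Host factors that control LPS-induced TNF expression in human macrophages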 (primary screen)
- Cell system: human THP-1 monocytic leukaemia cells, TNF dual-luciferase reporter clone, PMA-differentiated to macrophage-like cells
- Knock-down reagent: siRNA pool against human genes, 50 nM
- Timing: LPS for 4 h, given about 3 days after siRNA transfection
- Treatment: bacterial LPS (TLR4 ligand), 10 ng/ml
- Detection: 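Ratio of firefly to renilla light, scaled to the plate median and expressed as a robust z-score per replicate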
- Scale: TNF reporter robust z-score: higher = stronger TNF reporter response to LPS
- Hit rule: 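Each well counts as active if its z-score is over 2.8 or under -1.5; controls are left without a call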
In all, the deposit lists about 18,000 reagents; shown is a random part of them. Over the whole deposit, about 2,900 (16%) are marked active. 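Calls are made per well; low scores hint the gene aids the LPS response, high scores that it dampens it.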 Repeated entries: four replicate wells of each siRNA pool. Reagent sequences are not shown.

gene knocked down	TNF reporter robust z-score	call
IDI1 (isopentenyl-diphosphate delta isomerase 1)	-0.85	inactive
IDI1 (isopentenyl-diphosphate delta isomerase 1)	-0.72	inactive
IDI1 (isopentenyl-diphosphate delta isomerase 1)	-0.13	inactive
IDI1 (isopentenyl-diphosphate delta isomerase 1)	0.19	inactive
REM2 (RRAD and GEM like GTPase 2)	0.56	inactive
REM2 (RRAD and GEM like GTPase 2)	-0.03	inactive
REM2 (RRAD and GEM like GTPase 2)	0.47	inactive
REM2 (RRAD and GEM like GTPase 2)	0.71	inactive
VPREB3 (V-set pre-B cell surrogate light chain 3)	2.73	inactive
VPREB3 (V-set pre-B cell surrogate light chain 3)	4.27	active
VPREB3 (V-set pre-B cell surrogate light chain 3)	2.21	inactive
VPREB3 (V-set pre-B cell surrogate light chain 3)	4.41	active
ITPRID2 (ITPR interacting domain containing 2)	-0.15	inactive
ITPRID2 (ITPR interacting domain containing 2)	-0.05	inactive
ITPRID2 (ITPR interacting domain containing 2)	-0.06	inactive
ITPRID2 (ITPR interacting domain containing 2)	0.05	inactive
CAMK1 (calcium/calmodulin dependent protein kinase I)	-0.68	inactive
CAMK1 (calcium/calmodulin dependent protein kinase I)	-0.44	inactive
CAMK1 (calcium/calmodulin dependent protein kinase I)	-0.69	inactive
CAMK1 (calcium/calmodulin dependent protein kinase I)	0.08	inactive
COL16A1 (collagen type XVI alpha 1 chain)	-0.94	inactive
COL16A1 (collagen type XVI alpha 1 chain)	-1.83	active
COL16A1 (collagen type XVI alpha 1 chain)	-0.43	inactive
COL16A1 (collagen type XVI alpha 1 chain)	0.98	inactive
PBK (PDZ binding kinase)	-1.06	inactive
PBK (PDZ binding kinase)	0.77	inactive
PBK (PDZ binding kinase)	-0.18	inactive
PBK (PDZ binding kinase)	0.31	inactive
TPMT (thiopurine S-methyltransferase)	-0.87	inactive
TPMT (thiopurine S-methyltransferase)	1.25	inactive
TPMT (thiopurine S-methyltransferase)	-0.94	inactive
TPMT (thiopurine S-methyltransferase)	-0.19	inactive
S100A10 (S100 calcium binding protein A10)	3.79	active
S100A10 (S100 calcium binding protein A10)	0.85	inactive
S100A10 (S100 calcium binding protein A10)	2.45	inactive
S100A10 (S100 calcium binding protein A10)	1.38	inactive
COX18 (cytochrome c oxidase assembly factor COX18)	-1.31	inactive
COX18 (cytochrome c oxidase assembly factor COX18)	-0.77	inactive
COX18 (cytochrome c oxidase assembly factor COX18)	-0.76	inactive
COX18 (cytochrome c oxidase assembly factor COX18)	-0.44	inactive
MSLNL (mesothelin like)	-0.1	inactive
MSLNL (mesothelin like)	-0.67	inactive
MSLNL (mesothelin like)	0.78	inactive
MSLNL (mesothelin like)	0.56	inactive
UGT1A9 (UDP glucuronosyltransferase family 1 member A9)	-0.6	inactive
UGT1A9 (UDP glucuronosyltransferase family 1 member A9)	-0.13	inactive
UGT1A9 (UDP glucuronosyltransferase family 1 member A9)	-0.75	inactive
UGT1A9 (UDP glucuronosyltransferase family 1 member A9)	0.03	inactive
